Assay results from patent US20170355953A1 (OSAKA UNIVERSITY, published 2017).
No constants are given. Whether binding was seen depends on the method and setting. Binding seen in cells or lysates may run through a third protein. Some entries that bind do so weakly or less than the wild type. Where a sequence is shown, tags or fusion partners need not be part of it.

The chains behind the UniProt entries cited, without tags or fusion partners. Where a name states a change or a piece, a line headed by the entry shows the natural chain unless it says otherwise. A line that says so, or that is headed by a name, gives the form on record, which may keep a tag or linker.
N-terminally PA-tagged human Wnt10b (O00744, form named): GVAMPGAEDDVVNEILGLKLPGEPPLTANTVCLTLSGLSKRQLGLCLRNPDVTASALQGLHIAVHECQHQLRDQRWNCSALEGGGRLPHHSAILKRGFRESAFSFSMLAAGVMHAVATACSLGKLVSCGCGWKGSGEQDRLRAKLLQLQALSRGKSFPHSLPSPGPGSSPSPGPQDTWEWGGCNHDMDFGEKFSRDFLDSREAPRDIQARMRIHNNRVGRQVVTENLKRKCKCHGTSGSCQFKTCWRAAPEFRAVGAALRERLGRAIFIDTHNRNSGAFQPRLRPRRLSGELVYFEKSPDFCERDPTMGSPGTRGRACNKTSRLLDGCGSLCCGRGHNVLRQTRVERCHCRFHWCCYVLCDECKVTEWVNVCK
N-terminally PA-tagged human Wnt3a (P56704, form named): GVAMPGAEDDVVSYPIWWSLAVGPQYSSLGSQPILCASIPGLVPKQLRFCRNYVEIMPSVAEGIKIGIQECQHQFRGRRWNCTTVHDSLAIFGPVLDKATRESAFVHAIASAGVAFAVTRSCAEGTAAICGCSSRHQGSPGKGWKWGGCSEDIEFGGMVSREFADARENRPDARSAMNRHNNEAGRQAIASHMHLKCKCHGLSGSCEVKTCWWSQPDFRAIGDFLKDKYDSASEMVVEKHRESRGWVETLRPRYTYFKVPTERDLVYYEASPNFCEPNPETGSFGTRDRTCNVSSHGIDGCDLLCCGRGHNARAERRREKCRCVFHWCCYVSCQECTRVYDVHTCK
UniProt P27467: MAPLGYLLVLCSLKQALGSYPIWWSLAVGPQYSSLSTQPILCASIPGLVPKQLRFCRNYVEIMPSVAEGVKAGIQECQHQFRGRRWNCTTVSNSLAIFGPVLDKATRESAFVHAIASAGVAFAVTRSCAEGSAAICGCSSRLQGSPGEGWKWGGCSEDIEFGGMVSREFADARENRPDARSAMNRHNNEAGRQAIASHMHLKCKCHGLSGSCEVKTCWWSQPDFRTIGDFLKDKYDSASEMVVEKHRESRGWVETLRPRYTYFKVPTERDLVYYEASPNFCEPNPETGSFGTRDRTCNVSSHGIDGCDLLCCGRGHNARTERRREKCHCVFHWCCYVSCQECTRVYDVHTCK

What was measured:
[1] = target: T1, N-terminally PA-tagged human Wnt1 (human) (UniProt P04628); experiment: co-immunoprecipitation on P20.1-sepharose (TARGET tag on afamin), western blotting with biotin-modified NZ-1
T1 sequence: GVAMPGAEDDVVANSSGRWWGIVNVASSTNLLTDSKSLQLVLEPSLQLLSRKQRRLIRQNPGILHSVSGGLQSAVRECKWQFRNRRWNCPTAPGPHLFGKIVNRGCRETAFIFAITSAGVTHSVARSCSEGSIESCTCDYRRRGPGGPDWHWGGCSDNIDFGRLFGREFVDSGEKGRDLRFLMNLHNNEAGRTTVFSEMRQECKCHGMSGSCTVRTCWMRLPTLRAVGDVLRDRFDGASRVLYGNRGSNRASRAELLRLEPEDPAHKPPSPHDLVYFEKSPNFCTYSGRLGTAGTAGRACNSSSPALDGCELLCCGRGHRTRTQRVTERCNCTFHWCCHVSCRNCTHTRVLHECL

[2] = target: N-terminally PA-tagged human Wnt10b (human) (UniProt O00744); experiment: as above
[3] = target: T2, N-terminally PA-tagged human Wnt2b (human) (UniProt Q93097); experiment: as above
T2 sequence: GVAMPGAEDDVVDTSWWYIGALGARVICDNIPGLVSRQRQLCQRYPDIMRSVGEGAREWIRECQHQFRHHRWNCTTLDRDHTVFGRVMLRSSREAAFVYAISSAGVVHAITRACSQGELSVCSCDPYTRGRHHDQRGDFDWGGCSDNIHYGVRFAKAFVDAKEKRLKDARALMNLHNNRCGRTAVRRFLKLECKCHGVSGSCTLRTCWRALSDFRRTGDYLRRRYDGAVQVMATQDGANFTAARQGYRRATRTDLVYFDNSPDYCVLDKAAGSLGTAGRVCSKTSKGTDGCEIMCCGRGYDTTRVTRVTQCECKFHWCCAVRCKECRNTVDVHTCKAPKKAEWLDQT

[4] = target: N-terminally PA-tagged human Wnt3a (human) (UniProt P56704); experiment: as above
[5] = target: T3, N-terminally PA-tagged human Wnt5a (human) (UniProt P41221); experiment: as above
T3 sequence: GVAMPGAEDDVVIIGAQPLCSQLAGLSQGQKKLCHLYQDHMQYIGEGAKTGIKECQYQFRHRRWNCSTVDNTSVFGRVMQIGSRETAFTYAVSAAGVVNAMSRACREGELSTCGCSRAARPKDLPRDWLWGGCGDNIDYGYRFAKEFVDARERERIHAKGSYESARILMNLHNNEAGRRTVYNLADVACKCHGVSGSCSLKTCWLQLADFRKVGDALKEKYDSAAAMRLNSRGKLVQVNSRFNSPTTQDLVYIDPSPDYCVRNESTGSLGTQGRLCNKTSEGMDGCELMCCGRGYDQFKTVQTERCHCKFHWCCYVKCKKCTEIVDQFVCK

[6] = target: T4, N-terminally PA-tagged human Wnt7a (human) (UniProt O00755); experiment: as above
T4 sequence: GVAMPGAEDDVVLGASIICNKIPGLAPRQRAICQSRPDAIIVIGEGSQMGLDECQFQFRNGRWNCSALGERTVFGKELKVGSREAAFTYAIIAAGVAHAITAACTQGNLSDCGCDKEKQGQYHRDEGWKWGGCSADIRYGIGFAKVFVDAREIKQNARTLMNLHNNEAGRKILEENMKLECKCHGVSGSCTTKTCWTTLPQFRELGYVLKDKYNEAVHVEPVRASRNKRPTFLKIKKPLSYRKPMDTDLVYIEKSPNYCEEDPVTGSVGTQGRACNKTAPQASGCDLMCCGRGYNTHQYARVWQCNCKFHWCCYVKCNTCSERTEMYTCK

[7] = target: T5, N-terminally PA-tagged human Wnt7b (human) (UniProt P56706); experiment: as above
T5 sequence: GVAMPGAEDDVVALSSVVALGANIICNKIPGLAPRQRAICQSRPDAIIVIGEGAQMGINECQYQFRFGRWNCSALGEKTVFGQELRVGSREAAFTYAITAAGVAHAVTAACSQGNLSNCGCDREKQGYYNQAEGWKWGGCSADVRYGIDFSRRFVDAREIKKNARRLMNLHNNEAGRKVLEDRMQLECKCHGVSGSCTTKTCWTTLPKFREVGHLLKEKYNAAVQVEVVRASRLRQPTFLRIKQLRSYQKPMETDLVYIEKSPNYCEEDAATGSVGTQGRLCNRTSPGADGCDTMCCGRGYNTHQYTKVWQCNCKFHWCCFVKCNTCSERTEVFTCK

[8] = target: T6, N-terminally PA-tagged human Wnt8a (human) (UniProt Q9H1J5); experiment: as above
T6 sequence: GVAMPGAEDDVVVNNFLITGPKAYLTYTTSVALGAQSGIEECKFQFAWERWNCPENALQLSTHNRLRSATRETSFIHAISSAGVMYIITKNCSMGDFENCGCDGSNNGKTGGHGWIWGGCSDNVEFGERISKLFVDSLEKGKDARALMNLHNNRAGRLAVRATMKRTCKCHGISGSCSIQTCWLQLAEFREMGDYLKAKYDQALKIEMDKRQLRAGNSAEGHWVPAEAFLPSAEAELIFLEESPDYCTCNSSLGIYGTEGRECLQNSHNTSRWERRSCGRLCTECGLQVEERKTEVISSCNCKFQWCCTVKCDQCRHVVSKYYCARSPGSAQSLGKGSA

[9] = target: T7, N-terminally PA-tagged human Wnt9a (human) (UniProt O14904); experiment: as above
T7 sequence: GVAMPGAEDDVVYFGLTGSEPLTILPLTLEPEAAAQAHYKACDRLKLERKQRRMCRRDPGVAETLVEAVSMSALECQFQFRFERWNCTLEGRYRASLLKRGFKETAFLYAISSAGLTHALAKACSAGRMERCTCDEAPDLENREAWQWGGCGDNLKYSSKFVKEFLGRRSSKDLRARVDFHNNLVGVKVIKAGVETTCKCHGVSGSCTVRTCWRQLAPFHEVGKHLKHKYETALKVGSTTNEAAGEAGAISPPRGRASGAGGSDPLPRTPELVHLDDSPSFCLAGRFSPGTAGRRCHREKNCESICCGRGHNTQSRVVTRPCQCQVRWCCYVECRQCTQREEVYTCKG

[10] = target: T8, N-terminally PA-tagged human Wnt9b (human) (UniProt O14905); experiment: as above
T8 sequence: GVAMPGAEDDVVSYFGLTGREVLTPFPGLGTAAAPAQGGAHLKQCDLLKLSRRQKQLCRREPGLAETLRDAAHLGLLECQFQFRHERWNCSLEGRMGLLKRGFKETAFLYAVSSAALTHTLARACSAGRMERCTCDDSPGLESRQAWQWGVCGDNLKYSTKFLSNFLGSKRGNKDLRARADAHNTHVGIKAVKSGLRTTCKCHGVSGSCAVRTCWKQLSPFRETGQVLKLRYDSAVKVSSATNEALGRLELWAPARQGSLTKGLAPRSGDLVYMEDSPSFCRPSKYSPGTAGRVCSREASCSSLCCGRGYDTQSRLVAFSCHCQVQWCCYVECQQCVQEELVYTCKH

[11] = target: mouse Wnt3a fused with an affinity tag (W-Wnt3a) (mouse) (UniProt P27467); experiment: co-purification on P20.1 antibody-sepharose from serum-free medium supplemented with recombinant human afamin, SDS-PAGE

Measured: binding

B1: N-terminally TARGET-tagged human afamin (protein, UniProt P43652 22-599, looked up, not shown: small tags and cut ends)
chain: LPTQPRDIENFNSTQKFIEDNIEYITIIAFAQYVQEATFEEMEKLVKDMVEYKDRCMADKTLPECSKLPNNVLQEKICAMEGLPQKHNFSHCCSKVDAQRRLCFFYNKKSDVGFLPPFPTLDPEEKCQAYESNRESLLNHFLYEVARRNPFVFAPTLLTVAVHFEEVAKSCCEEQNKVNCLQTRAIPVTQYLKAFSSYQKHVCGALLKFGTKVVHFIYIAILSQKFPKIEFKELISLVEDVSSNYDGCCEGDVVQCIRDTSKVMNHICSKQDSISSKIKECCEKKIPERGQCIINSNKDDRPKDLSLREGKFTDSENVCQERDADPDTFFAKFTFEYSRRHPDLSIPELLRIVQIYKDLLRNCCNTENPPGCYRYAEDKFNETTEKSLKMVQQECKHFQNLGKDGLKYHYLIRLTKIAPQLSTEELVSLGEKMVTAFTTCCTLSEEFACVDNLADLVFGELCGVNENRTINPAVDHCCKTNFAFRRPCFESLKADKTYVPPPFSQDLFTFHADMCQSQNEELQRKTDRFLVNLVKLKHELTDEELQSLFTNFANVVDKCCKAESPEVCFNEESPKIGN
binds: [1] | [2] | [3] | [4] | [5] | [6] | [7] | [8] | [9] | [10]

B2: recombinant human afamin fused with a PA tag at the C-terminus (hAFM-PA) (protein)
chain: LPTQPRDIENFNSTQKFIEDNIEYITIIAFAQYVQEATFEEMEKLVKDMVEYKDRCMADKTLPECSKLPNNVLQEKICAMEGLPQKHNFSHCCSKVDAQRRLCFFYNKKSDVGFLPPFPTLDPEEKCQAYESNRESLLNHFLYEVARRNPFVFAPTLLTVAVHFEEVAKSCCEEQNKVNCLQTRAIPVTQYLKAFSSYQKHVCGALLKFGTKVVHFIYIAILSQKFPKIEFKELISLVEDVSSNYDGCCEGDVVQCIRDTSKVMNHICSKQDSISSKIKECCEKKIPERGQCIINSNKDDRPKDLSLREGKFTDSENVCQERDADPDTFFAKFTFEYSRRHPDLSIPELLRIVQIYKDLLRNCCNTENPPGCYRYAEDKFNETTEKSLKMVQQECKHFQNLGKDGLKYHYLIRLTKIAPQLSTEELVSLGEKMVTAFTTCCTLSEEFACVDNLADLVFGELCGVNENRTINPAVDHCCKTNFAFRRPCFESLKADKTYVPPPFSQDLFTFHADMCQSQNEELQRKTDRFLVNLVKLKHELTDEELQSLFTNFANVVDKCCKAESPEVCFNEESPKIGNGVAMPGAEDDVV
binds: [11]
